Data set [1] can be described thus: Far-UV CD spectroscopy (secondary structure). In kind it is physicochemical. Particulars: for R = [θ]222/[θ]208 SDS: CD in 100 mM SDS; for R = [θ]222/[θ]208 MeOH: CD in MeOH.
Another data set deals with HeLa cells. Kind of data set: EPR of TOAC-labelled peptides with intact HeLa cells. In kind it is binding, human. Particulars: membrane-bound peptide, 125 μM, 25 nmol per million cells, 293 K. The text has this: (§1) EPR spectroscopy has been performed on TOAC-labelled analogues to determine the amount of peptide bound to the membrane and to evaluate the peptide dynamics. […] We studied all analogues in buffer solution and in POPC SUV, the same systems used for CD spectroscopy; four selected analogues (see cytotoxicity assay paragraph) were also studied interacting with a suspension of intact cells of the three cell lines. […] Additionally, from the simulations, we determined the value of the Azz hyperfine component that gives an indication of the polarity of the environment. All EPR spectra and simulations are reported in the Supplementary Information (Figs S1–S4), while in Fig. 4, we report an overview of the experiments. In the top part of the figure, we show the spectra of [TOAC^1] TG in buffer solution (blue), in SUV (red), and interacting with T67 cells (magenta). In the bottom part, we show the spectra of the other three peptides, representative of the different degrees of biological activity, interacting with intact T67 cells. […]
(§2) Methanol, 99.9%, spectrophotometric grade, [4-(2-hydroxyethyl)-1-piperazinyl]ethanesulfonic acid (HEPES), and PBS buffer (NaCl 137 mM, KCl 2.7 mM, Na2HPO4 10 mM, KH2PO4 1.8 mM, pH 7.4) were purchased from Sigma-Aldrich. […] The spectra were recorded after 15–20 minutes of incubation of the peptide to the cell suspension. […]

A further data set concerns T67 cells. Kind of data set: EPR of TOAC-labelled peptides with intact T67 cells. In kind it is binding, human. To be noted: membrane-bound peptide, 125 μM, 25 nmol per million cells, 293 K.
Source text: as §1, §2

For another data set, the system named is HDF cells. As to the kind of experiment: EPR of TOAC-labelled peptides with intact HDF cells. To be noted: membrane-bound peptide, 125 μM, 25 nmol per million cells, 293 K. In kind it is binding, human.
Source text: as §1, §2

Square brackets hold non-standard residues; d marks the D form. Peptide text beside a SMILES is read from it. * marks the point of attachment. TOAC = CC1(C)CC(N)(C(=O)O)CC(C)(C)N1[O]; Leu(ol) = CC(C)C[C@H](N)CO; Octanoyl = CCCCCCCC(=O)*; Api = NC1(C(=O)O)CCNCC1; Aib = CC(C)(N)C(=O)O

On to `CCCCCCCC(=O)NC1(C(=O)NCC(=O)N[C@@H](CC(C)C)C(=O)NC(C)(C)C(=O)N[C@@H](CCCCN)C(=O)N[C@@H](CCCCN)C(=O)N[C@@H](CC(C)C)C(=O)NC(C)(C)C(=O)NCC(=O)N[C@H](C(=O)N[C@H](CO)CC(C)C)[C@@H](C)CC)CC(C)(C)N([O])C(C)(C)C1` [[TOAC^1, Lys^5,6] TG, Oct-XGLUKKLUGI-Lol], for which, in data set [1], the “R = [θ]222/[θ]208 SDS” value was 0.8 and the “R = [θ]222/[θ]208 MeOH” value stood at 0.6.
The matching figures for Oct-UGLLGGLUGI-Lol [[Leu^4] TG]: 0.6 and 0.3.
The matching figures for `CCCCCCCC(=O)NC1(C(=O)N[C@@H](CCCNC(=N)N)C(=O)N[C@@H](CC(C)C)C(=O)NC(C)(C)C(=O)NCC(=O)NCC(=O)N[C@@H](CC(C)C)C(=O)NC(C)(C)C(=O)NCC(=O)N[C@H](C(=O)N[C@H](CO)CC(C)C)[C@@H](C)CC)CC(C)(C)N([O])C(C)(C)C1` [[TOAC^1, Arg^2] TG, Oct-XRLUGGLUGI-Lol] (Octanoyl-[TOAC]RL[Aib]GGL[Aib]GI[Leu(ol)]): 0.6 and 0.3.
Turning to `CCCCCCCC(=O)NC(C)(C)C(=O)N[C@@H](CCCNC(=N)N)C(=O)N[C@@H](CC(C)C)C(=O)NC(C)(C)C(=O)NCC(=O)NCC(=O)N[C@@H](CC(C)C)C(=O)NC(C)(C)C(=O)NCC(=O)N[C@H](C(=O)N[C@H](CO)CC(C)C)[C@@H](C)CC` [[Arg^2] TG, Oct-URLUGGLUGI-Lol] (Octanoyl-[Aib]RL[Aib]GGL[Aib]GI[Leu(ol)]), in data set [1], the “R = [θ]222/[θ]208 SDS” value is given as 0.6 and the “R = [θ]222/[θ]208 MeOH” value was 0.4.
Consider `CCCCCCCC(=O)NC1(C(=O)NCC(=O)N[C@@H](CC(C)C)C(=O)NC(C)(C)C(=O)NCC(=O)NCC(=O)N[C@@H](CC(C)C)C(=O)NC(C)(C)C(=O)N[C@@H](CCCNC(=N)N)C(=O)N[C@H](C(=O)N[C@H](CO)CC(C)C)[C@@H](C)CC)CC(C)(C)N([O])C(C)(C)C1` [[TOAC^1, Arg^9] TG, Oct-XGLUGGLURI-Lol] (Octanoyl-[TOAC]GL[Aib]GGL[Aib]RI[Leu(ol)]), for which, in data set [1], the “R = [θ]222/[θ]208 SDS” value worked out at 0.6 and the “R = [θ]222/[θ]208 MeOH” value is 0.4.
Taken in the same sequence, the figures for `CCCCCCCC(=O)NC(C)(C)C(=O)NCC(=O)N[C@@H](CC(C)C)C(=O)NC(C)(C)C(=O)NCC(=O)NCC(=O)N[C@@H](CC(C)C)C(=O)NC1(C(=O)NCC(=O)N[C@H](C(=O)N[C@H](CO)CC(C)C)[C@@H](C)CC)CCNCC1` [[Api^8] TG, Oct-UGLUGGLZGI-Lol] (Octanoyl-[Aib]GL[Aib]GGL[Api]GI[Leu(ol)]) were 0.4 and 0.4.
The matching figures for `CCCCCCCC(=O)NC(C)(C)C(=O)NCC(=O)N[C@@H](CC(C)C)C(=O)NC(C)(C)C(=O)NCC(=O)N[C@@H](CCCCN)C(=O)N[C@@H](CC(C)C)C(=O)NC(C)(C)C(=O)NCC(=O)N[C@H](C(=O)N[C@H](CO)CC(C)C)[C@@H](C)CC` [[Lys^6] TG, Oct-UGLUGKLUGI-Lol]: 0.6 and 0.4.
Taken in the same sequence, the figures for Oct-XGLUGGLLGI-Lol [[TOAC^1, Leu^8] TG] were 0.7 and 0.2.
`CCCCCCCC(=O)NC1(C(=O)NCC(=O)N[C@@H](CC(C)C)C(=O)NC2(C(=O)NCC(=O)NCC(=O)N[C@@H](CC(C)C)C(=O)NC(C)(C)C(=O)NCC(=O)N[C@H](C(=O)N[C@H](CO)CC(C)C)[C@@H](C)CC)CCNCC2)CC(C)(C)N([O])C(C)(C)C1` [[TOAC^1, Api^4] TG, Oct-XGLZGGLUGI-Lol] (Octanoyl-[TOAC]GL[Api]GGL[Aib]GI[Leu(ol)]): the “Correlation time, τ HeLa” value in the data set on HeLa cells came out at 12 ns. The “Correlation time, τ T67” value in the data set on T67 cells worked out at 12 ns. The “Correlation time, τ HDF” value in the data set with HDF cells amounted to 12 ns. Also, in data set [1], the “R = [θ]222/[θ]208 SDS” value came out at 0.6 and the “R = [θ]222/[θ]208 MeOH” value came to 0.5.
Turning to `CCCCCCCC(=O)NC(C)(C)C(=O)NCC(=O)N[C@@H](CC(C)C)C(=O)NC(C)(C)C(=O)NCC(=O)NCC(=O)N[C@@H](CC(C)C)C(=O)NC(C)(C)C(=O)NCC(=O)N[C@H](C(=O)N[C@H](CO)CC(C)C)[C@@H](C)CC` [TG, 1-Oct-Aib-Gly-Leu-Aib-Gly-Gly-Leu-Aib-Gly-Ile-Lol, reference compound] (Octanoyl-[Aib]GL[Aib]GGL[Aib]GI[Leu(ol)]), in data set [1], the “R = [θ]222/[θ]208 SDS” value is given as 0.5 and the “R = [θ]222/[θ]208 MeOH” value is reported as 0.2.
For `CCCCCCCC(=O)NC1(C(=O)NCC(=O)N[C@@H](CC(C)C)C(=O)NC(C)(C)C(=O)NCC(=O)NCC(=O)N[C@@H](CC(C)C)C(=O)NC(C)(C)C(=O)NCC(=O)N[C@H](C(=O)N[C@H](CO)CC(C)C)[C@@H](C)CC)CC(C)(C)N([O])C(C)(C)C1` [[TOAC^1] TG, Oct-XGLUGGLUGI-Lol] (Octanoyl-[TOAC]GL[Aib]GGL[Aib]GI[Leu(ol)]), the “Correlation time, τ HeLa” value in the data set with HeLa cells was found to be 12 ns. In addition, in the data set with T67 cells, the “Correlation time, τ T67” value amounted to 9 ns. Besides, the “Correlation time, τ HDF” value with HDF cells was 9 ns. Moreover, in data set [1], the “R = [θ]222/[θ]208 SDS” value amounted to 0.6 and the “R = [θ]222/[θ]208 MeOH” value is reported as 0.3.
In the case of `CCCCCCCC(=O)NC(C)(C)C(=O)NCC(=O)N[C@@H](CC(C)C)C(=O)NC(C)(C)C(=O)N[C@@H](CCCCN)C(=O)N[C@@H](CCCCN)C(=O)N[C@@H](CC(C)C)C(=O)NC(C)(C)C(=O)NCC(=O)N[C@H](C(=O)N[C@H](CO)CC(C)C)[C@@H](C)CC` [[Lys^5,6] TG, Oct-UGLUKKLUGI-Lol], in data set [1], the “R = [θ]222/[θ]208 SDS” value is reported as 0.5 and the “R = [θ]222/[θ]208 MeOH” value is listed as 0.5.

The record behind these values is publication PMC4819177, “The rational search for selective anticancer derivatives of the peptide Trichogin GA IV: a multi-technique biophysical approach” (Scientific Reports, 2016).
